No constants are given. Whether binding was seen depends on the method and setting.
Biological target: Human ⇒ mouse HSP70 mutant/GFP (human)
Assay: Western blot of 293 cell material with 77A

- binding: no binding
B1: 77A antibody (clone 77A, murine anti-HSP70 mAb) (antibody, V domains shown)
VH: QIQLVQSGPELKKPGETVKISCKASGYTFTNYGMNWVKQAPGKGLKWMGWINTYTGEPTYADDFKGRFAFSLETSATTAYLQINNLKNEDTATYFCARYDHAMDYWGQGTSVTVSS
VL: DIVMSQSPSSLAVSAGEKVTMSCKSSQSLLNSGTRKNYLAWYQQKPGQSPKLLIYWTSTRESGVPDRFTGSGSGTDFTLTINSVQAEDLAVYYCKQSYTLYTFGGGTKLEIK

Reference: patent US20230128075A1
